The target of this experiment is T1, AtTPX2-GFP (Arabidopsis thaliana targeting protein for Xklp2 fused to GFP) (Arabidopsis thaliana) (UniProt F4I2H7).
T1 sequence: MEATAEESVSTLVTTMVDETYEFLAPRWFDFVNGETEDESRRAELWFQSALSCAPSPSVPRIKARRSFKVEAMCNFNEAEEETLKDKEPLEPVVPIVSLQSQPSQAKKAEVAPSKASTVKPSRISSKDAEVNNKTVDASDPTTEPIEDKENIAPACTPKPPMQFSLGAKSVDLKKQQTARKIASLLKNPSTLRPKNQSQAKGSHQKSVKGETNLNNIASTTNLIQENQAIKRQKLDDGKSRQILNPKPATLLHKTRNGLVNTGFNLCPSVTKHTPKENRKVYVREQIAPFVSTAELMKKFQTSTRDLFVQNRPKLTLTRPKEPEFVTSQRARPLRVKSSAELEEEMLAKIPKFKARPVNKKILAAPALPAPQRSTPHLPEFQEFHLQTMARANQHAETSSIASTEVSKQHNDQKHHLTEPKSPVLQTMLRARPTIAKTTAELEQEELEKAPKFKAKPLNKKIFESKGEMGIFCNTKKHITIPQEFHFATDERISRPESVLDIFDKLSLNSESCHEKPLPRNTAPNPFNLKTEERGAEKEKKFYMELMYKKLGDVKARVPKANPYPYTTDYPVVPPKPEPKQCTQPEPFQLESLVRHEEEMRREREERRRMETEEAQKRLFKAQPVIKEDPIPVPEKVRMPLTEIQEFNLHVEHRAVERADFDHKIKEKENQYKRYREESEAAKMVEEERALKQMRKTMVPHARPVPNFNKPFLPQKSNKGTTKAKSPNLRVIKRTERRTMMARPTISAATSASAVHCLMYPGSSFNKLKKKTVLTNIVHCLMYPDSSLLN
The experiment is described as follows: co-IP; GFP-Trap or RFP-Trap beads with extract of A. thaliana cell culture co-expressing AtAurora1-RFP and AtTPX2-GFP, 1.5 h at 4 °C; elution with glycine pH 2.5; immunoblot. On the technique in general: A western blot detects proteins with antibodies after separation by electrophoresis.

No constants are given. Whether binding was seen depends on the method and setting. Binding seen in cells or lysates may run through a third protein. Some binding calls cover weakened binding; strength is not graded here. Sequences can lack the tags named with a protein.

B1: AtAurora1-RFP (enzyme, UniProt Q9M077 1-294)
chain: MAIPTETQHQEKEASDASAAAAQKRWTLSDFDIGKPLGRGKFGHVYLAREKRSNHVVALKVLFKSQLQQSQVEHQLRREVEIQSHLRHPNILRLYGYFYDQKRVYLILEYAARGELYKDLQKCKYFSERRAATYVASLARALIYCHGKHVIHRDIKPENLLIGAQGELKIADFGWSVHTFNRRRTMCGTLDYLPPEMVESVEHDASVDIWSLGILCYEFLYGVPPFEAMEHSDTYRRIVQVDLKFPPKPIISASAKDLISQMLVKESSQRLPLHKLLEHPWIVQNADPSGIYRV
Regarding B1, the binding entry is reported as “binds”.

Source of the values: publication PMC3808333.
